The source of these data is PMC11364024.

Results are given in words; binding and its absence hold for the method and conditions named.

This assay has as its target T1, human small EDRK-rich factor 1a (SERF1a) (human).
T1 chain: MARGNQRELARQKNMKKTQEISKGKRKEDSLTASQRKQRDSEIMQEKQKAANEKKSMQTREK
Kind of assay: SEC-SWAXS (size-exclusion column with small- and wide-angle X-ray scattering, UV-Vis absorption and dRI); single-component samples (SERF1a 4.1 mg/ml; Htt-1 10 mg/ml injected, diluted ca. 2-4 fold on the column); sodium phosphate buffer pH 7.4; 283 K; aggregation number from zero-angle intensity I0 and the concentration from optical data; both purified. To be noted: remark: other sources report otherwise.

B1: human small EDRK-rich factor 1a (SERF1a) (protein)
chain: MARGNQRELARQKNMKKTQEISKGKRKEDSLTASQRKQRDSEIMQEKQKAANEKKSMQTREK
On to B1, for which the binding entry is “no binding (tested: 4.1 mg ml^-1 injected)”.
